US20110020843A1, “LABEL-FREE METHODS RELATED TO PHOSPHODIESTERASES” (priority 2009, published 2011)
At least one compound was matched to its structure with a doubt left.

Test system: quiescent A431 cells (endogenous PDE4 isoforms)
Test: Label-free Epic RWG biosensor DMR assay of PDE inhibitors in synchronized quiescent A431 cells
Format: cell-based, human
Conditions: each at 12.5 micromolar; 22k cells per well; synchronized in HBSS under low CO2 for 2 hrs; vs vehicle
Procedure: Cells were typically grown using ˜1 to 2×10^4 cells per well at passage 3 to 15 suspended in 50 μl of the corresponding culture medium in the biosensor microplate, and were cultured at 37° C. under air/5% CO2 for ˜1 day. Except for A431 which was subject to ˜20 hr starvation through continuously culture in the serum-free DMEM, the other cell types were directly assayed without starvation.
Epic® wavelength interrogation system (Corning Inc., Corning, N.Y.) was used for whole cell sensing. This system consists of a temperature-control unit, an optical detection unit, and an on-board liquid handling unit with robotics. The detection unit is centered on integrated fiber optics, and enables kinetic measures of cellular responses with a time interval of ˜15 sec. The compound solutions were introduced by using the on-board liquid handling unit (i.e., pippetting).
The RWG biosensor is capable of detecting minute changes in local index of refraction near the sensor surface. Since the local index of refraction within a cell is a function of density and its distribution of biomass (e.g., proteins, molecular complexes), the biosensor exploits its evanescent wave to non-invasively detect ligand-induced dynamic mass redistribution in native cells. […]

CC(C)C(=O)c1c(C(C)C)nn2ccccc12 [ibudilast]
DMR signal induced by PDE inhibitor: did not result in any detectable DMR signals
